Assay results: paper PMC11006458
These are yes or no findings as the source states them, for the method shown. Binding seen in cells or lysates may run through a third protein. Some binding calls cover weakened binding; strength is not graded here. For some of these results: Tags and fused reporters may be left off the sequences shown. One block for each molecule: values may come before it.

Chains of the proteins cited; added tags and fusions are not shown.
UniProt P01106: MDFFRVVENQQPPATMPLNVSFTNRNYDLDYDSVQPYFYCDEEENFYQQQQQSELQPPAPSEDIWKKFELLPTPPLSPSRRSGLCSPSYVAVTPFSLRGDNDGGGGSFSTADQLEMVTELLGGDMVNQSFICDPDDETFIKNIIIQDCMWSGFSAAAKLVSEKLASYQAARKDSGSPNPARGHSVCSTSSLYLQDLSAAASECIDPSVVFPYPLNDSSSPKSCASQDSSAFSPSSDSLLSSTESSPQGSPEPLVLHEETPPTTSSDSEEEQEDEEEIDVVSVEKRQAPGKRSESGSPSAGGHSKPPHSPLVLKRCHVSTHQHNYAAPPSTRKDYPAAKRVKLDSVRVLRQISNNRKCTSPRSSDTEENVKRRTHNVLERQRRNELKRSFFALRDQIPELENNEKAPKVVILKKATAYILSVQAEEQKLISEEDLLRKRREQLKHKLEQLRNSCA

Legend:
Flag-USP36 = molecular target: T1, Flag-USP36 (UniProt Q9P275); experiment: co-IP; HCT116 cells transfected with Flag-USP36 or HA-c-Myc or their combination; lysate incubated with bead-conjugated FLAG or HA overnight at 4°C; western blot
T1 sequence: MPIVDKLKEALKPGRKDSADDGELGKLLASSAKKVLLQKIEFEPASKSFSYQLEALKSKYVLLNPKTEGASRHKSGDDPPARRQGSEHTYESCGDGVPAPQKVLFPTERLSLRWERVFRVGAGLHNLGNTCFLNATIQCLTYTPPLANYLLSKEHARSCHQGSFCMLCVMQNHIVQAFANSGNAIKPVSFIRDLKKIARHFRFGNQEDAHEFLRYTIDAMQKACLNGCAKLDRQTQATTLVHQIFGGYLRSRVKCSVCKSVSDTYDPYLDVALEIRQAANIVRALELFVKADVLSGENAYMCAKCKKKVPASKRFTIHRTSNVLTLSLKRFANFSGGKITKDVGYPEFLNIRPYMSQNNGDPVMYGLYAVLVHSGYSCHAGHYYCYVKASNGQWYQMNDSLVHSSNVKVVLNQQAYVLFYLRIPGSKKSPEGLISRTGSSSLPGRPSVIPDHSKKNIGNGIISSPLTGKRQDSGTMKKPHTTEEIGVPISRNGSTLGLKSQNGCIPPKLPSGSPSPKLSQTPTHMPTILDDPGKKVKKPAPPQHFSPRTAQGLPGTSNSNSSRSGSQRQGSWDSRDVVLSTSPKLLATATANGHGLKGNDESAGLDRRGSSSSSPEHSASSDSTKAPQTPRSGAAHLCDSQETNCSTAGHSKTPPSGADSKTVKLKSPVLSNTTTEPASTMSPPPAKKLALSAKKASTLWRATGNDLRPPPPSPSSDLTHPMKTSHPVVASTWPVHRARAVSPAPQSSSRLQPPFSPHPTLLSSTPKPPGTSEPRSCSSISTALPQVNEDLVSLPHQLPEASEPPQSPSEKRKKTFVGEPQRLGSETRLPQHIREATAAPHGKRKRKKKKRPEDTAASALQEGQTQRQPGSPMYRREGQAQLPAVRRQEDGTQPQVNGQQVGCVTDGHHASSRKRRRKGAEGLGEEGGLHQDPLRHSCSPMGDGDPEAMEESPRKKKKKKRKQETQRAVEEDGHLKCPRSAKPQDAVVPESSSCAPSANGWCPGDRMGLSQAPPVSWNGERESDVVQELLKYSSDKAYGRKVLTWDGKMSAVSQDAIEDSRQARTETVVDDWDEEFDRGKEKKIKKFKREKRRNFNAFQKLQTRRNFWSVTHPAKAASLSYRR

[1] = molecular target: T2, Ubiquitin-specific protease 36 (human (endogenous in HCT116)) (UniProt Q9P275); experiment: co-IP; endogenous proteins; HCT116 lysate incubated with anti-USP36 or anti-c-Myc antibody overnight at 4°C; western blot
T2 sequence: T1 sequence

[2] = molecular target: c-Myc (human (endogenous in HCT116)) (UniProt P01106); experiment: as above
HA-c-Myc = HA-c-Myc (UniProt P01106); experiment: co-IP; HCT116 cells transfected with Flag-USP36 or HA-c-Myc or their combination; lysate incubated with bead-conjugated FLAG or HA overnight at 4°C; western blot

binding (Flag-USP36): binds
Molecule: HA-c-Myc (from UniProt P01106 1-454)

binding [1]: binds
Molecule: c-Myc (from UniProt P01106 1-454)

binding [2]: binds
B1: Ubiquitin-specific protease 36 (enzyme, UniProt Q9P275 1-1123)
chain: T1 sequence

binding (HA-c-Myc): binds
B2: Flag-USP36 (enzyme, UniProt Q9P275 1-1123)
chain: T1 sequence
